Consider two molecules from paper doi:10.1101/2024.06.17.598829 (bioRxiv, 2024).

What all share (assay): co-IP
Test [1] concerns the target T1, NON-PHOTOTROPIC HYPOCOTYL 3 (NPH3), fluorophore-tagged, expressed in N. benthamiana (Arabidopsis thaliana) (UniProt Q9FMF5).
T1 sequence: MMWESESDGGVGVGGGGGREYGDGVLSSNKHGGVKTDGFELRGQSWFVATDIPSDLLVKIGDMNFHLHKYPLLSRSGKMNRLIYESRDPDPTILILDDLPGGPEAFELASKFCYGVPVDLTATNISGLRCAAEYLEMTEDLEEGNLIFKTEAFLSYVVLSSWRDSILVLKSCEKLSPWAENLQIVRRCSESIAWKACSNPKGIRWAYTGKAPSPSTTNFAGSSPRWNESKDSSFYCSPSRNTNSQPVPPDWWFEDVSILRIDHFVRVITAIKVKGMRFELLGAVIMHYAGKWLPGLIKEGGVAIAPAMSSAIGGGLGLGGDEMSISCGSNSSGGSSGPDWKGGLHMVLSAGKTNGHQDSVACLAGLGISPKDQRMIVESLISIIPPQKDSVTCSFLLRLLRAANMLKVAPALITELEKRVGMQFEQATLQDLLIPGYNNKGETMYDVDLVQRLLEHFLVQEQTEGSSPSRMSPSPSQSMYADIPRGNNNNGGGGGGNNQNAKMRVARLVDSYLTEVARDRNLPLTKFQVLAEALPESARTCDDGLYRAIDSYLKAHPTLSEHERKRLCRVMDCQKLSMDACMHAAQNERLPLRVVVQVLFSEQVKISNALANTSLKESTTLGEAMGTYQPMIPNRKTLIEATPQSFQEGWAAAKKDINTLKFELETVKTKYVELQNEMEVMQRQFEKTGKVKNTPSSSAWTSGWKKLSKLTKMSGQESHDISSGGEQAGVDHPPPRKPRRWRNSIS

Test [2] concerns the target T2, NPH3ΔC51 (Arabidopsis thaliana) (UniProt Q9FMF5).
T2 sequence: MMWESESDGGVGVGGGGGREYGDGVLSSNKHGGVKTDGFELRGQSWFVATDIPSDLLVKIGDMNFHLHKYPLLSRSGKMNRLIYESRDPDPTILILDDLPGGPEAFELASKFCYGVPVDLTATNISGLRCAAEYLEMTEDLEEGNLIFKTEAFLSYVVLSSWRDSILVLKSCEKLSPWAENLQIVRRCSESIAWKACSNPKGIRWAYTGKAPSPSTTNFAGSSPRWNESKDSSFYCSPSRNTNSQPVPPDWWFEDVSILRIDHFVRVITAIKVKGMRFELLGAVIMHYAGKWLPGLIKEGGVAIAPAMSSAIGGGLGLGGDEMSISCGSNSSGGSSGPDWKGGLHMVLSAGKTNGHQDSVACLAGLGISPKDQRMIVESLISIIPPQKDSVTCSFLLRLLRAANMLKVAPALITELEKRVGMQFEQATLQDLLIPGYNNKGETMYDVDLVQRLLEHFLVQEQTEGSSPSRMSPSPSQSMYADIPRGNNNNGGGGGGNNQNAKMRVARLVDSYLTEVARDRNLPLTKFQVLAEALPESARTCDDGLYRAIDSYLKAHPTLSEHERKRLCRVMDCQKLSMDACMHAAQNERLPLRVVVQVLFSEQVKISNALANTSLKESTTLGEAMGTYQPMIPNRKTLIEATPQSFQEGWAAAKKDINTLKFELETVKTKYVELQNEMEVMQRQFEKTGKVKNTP

The target of test [3] is T3, NPH3_WLM/E (Arabidopsis thaliana) (UniProt Q9FMF5).
T3 sequence: T1 sequence with W650E, L664E, M681E

Test [4] concerns the target T4, NPH3_S744A (Arabidopsis thaliana) (UniProt Q9FMF5).
T4 sequence: T1 sequence with S744A

Test [5] deals with NPH3ΔC164 (Arabidopsis thaliana) (UniProt Q9FMF5).

Substitutions are numbered along the chain they refer to. No constants are given. Whether binding was seen depends on the method and setting. In cells and extracts the contact can be indirect. Some entries that bind do so weakly or less than the wild type. For some of these results: Tags and fused reporters may be left off the sequences shown.

B1: NPH3ΔC51 (domain or fragment, UniProt Q9FMF5 1-695)
chain: T2 sequence
In the case of B1, the binding entry in test [1] was “binds”; in test [2], “binds”; in test [3], “binds weakly”; in test [4], “binds”.

B2: NPH3ΔC164 (domain or fragment, UniProt Q9FMF5 1-582)
chain: MMWESESDGGVGVGGGGGREYGDGVLSSNKHGGVKTDGFELRGQSWFVATDIPSDLLVKIGDMNFHLHKYPLLSRSGKMNRLIYESRDPDPTILILDDLPGGPEAFELASKFCYGVPVDLTATNISGLRCAAEYLEMTEDLEEGNLIFKTEAFLSYVVLSSWRDSILVLKSCEKLSPWAENLQIVRRCSESIAWKACSNPKGIRWAYTGKAPSPSTTNFAGSSPRWNESKDSSFYCSPSRNTNSQPVPPDWWFEDVSILRIDHFVRVITAIKVKGMRFELLGAVIMHYAGKWLPGLIKEGGVAIAPAMSSAIGGGLGLGGDEMSISCGSNSSGGSSGPDWKGGLHMVLSAGKTNGHQDSVACLAGLGISPKDQRMIVESLISIIPPQKDSVTCSFLLRLLRAANMLKVAPALITELEKRVGMQFEQATLQDLLIPGYNNKGETMYDVDLVQRLLEHFLVQEQTEGSSPSRMSPSPSQSMYADIPRGNNNNGGGGGGNNQNAKMRVARLVDSYLTEVARDRNLPLTKFQVLAEALPESARTCDDGLYRAIDSYLKAHPTLSEHERKRLCRVMDCQKLSMDACM
As to B2, the binding result in test [1], in test [2] and in test [5] was “binds weakly” throughout.
